## Cleaved PARP in drug-treated melanoma cells

Data from the primary screen of doi:10.1371/journal.pone.0140310, rounded.

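Human melanoma cells were exposed to two drugs together for 72 h in 1,536-well plates and read by automated microscopy after fixing and staining. Values are the share of nuclei positive for cleaved PARP as a percentage of the same share in the DMSO control: 100 is the control level, higher means more apoptosis. Every drug was used at one fixed concentration, the higher of two screened. These are primary screening values without error estimates. Basal and induced levels differ widely between cell lines.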 Only some of the drugs and lines screened are listed, without regard to their results. An entry leaves out what has no value listed here. A dash means that no value is listed here.

All values are for the listed drug together with stibogluconate (10 µM): O=C(O)[C@@H]1[O][Sb](=[O])([O][Sb]2(=[O])[O][C@H]([C@H](O)CO)[C@H](O)[C@H](C(=O)O)[O]2)[O][C@H]([C@H](O)CO)[C@@H]1O (some centres not stated)

Drug key:
sunitinib (2 µM): CCN(CC)CCNC(=O)c1c(C)[nH]c(/C=C2\C(=O)Nc3ccc(F)cc32)c1C
temozolomide (10 µM): Cn1nnc2c(C(N)=O)ncn2c1=O
vismodegib (5 µM): CS(=O)(=O)c1ccc(C(=O)Nc2ccc(Cl)c(-c3ccccn3)c2)c(Cl)c1
dovitinib (0.5 µM): CN1CCN(c2ccc3nc(-c4c(N)c5c(F)cccc5[nH]c4=O)[nH]c3c2)CC1
GW9662 (10 µM): O=C(Nc1ccccc1)c1cc([N+](=O)[O-])ccc1Cl
fingolimod (10 µM): CCCCCCCCc1ccc(CCC(N)(CO)CO)cc1
SNS-314 (0.004 µM): O=C(Nc1cccc(Cl)c1)Nc1ncc(CCNc2ncnc3ccsc23)s1
darinaparsin (2 µM): C[As](C)SC[C@H](NC(=O)CC[C@H](N)C(=O)O)C(=O)NCC(=O)O
selumetinib (0.075 µM): Cn1cnc2c(F)c(Nc3ccc(Br)cc3Cl)c(C(=O)NOCCO)cc21
everolimus (0.1 µM): CO[C@H]1C[C@@H]2CC[C@@H](C)[C@@](O)(O2)C(=O)C(=O)N2CCCC[C@H]2C(=O)O[C@H]([C@H](C)C[C@@H]2CC[C@@H](OCCO)[C@H](OC)C2)CC(=O)[C@H](C)/C=C(\C)[C@@H](O)[C@@H](OC)C(=O)[C@H](C)C[C@H](C)/C=C/C=C/C=C/1C
GW0742 (10 µM): Cc1cc(SCc2sc(-c3ccc(C(F)(F)F)c(F)c3)nc2C)ccc1OCC(=O)O
ruxolitinib (5 µM): N#CC[C@H](C1CCCC1)n1cc(-c2ncnc3[nH]ccc23)cn1
BI-D1870 (1 µM): CC(C)CCN1c2nc(Nc3cc(F)c(O)c(F)c3)ncc2N(C)C(=O)C1C (configuration not stated)
embelin (6 µM): CCCCCCCCCCCC1=C(O)C(=O)C=C(O)C1=O
KU-0063794 (0.1 µM): COc1ccc(-c2ccc3c(N4CCOCC4)nc(N4C[C@@H](C)O[C@@H](C)C4)nc3n2)cc1CO
cediranib (2 µM): COc1cc2c(Oc3ccc4[nH]c(C)cc4c3F)ncnc2cc1OCCCN1CCCC1
PD173074 (0.5 µM): CCN(CC)CCCCNc1ncc2cc(-c3cc(OC)cc(OC)c3)c(NC(=O)NC(C)(C)C)nc2n1
AS-252424 (5 µM): O=C1NC(=O)/C(=C/c2ccc(-c3ccc(F)cc3O)o2)S1
GW2580 (5 µM): COc1ccc(COc2ccc(Cc3cnc(N)nc3N)cc2OC)cc1
lapatinib (4 µM): CS(=O)(=O)CCNCc1ccc(-c2ccc3ncnc(Nc4ccc(OCc5cccc(F)c5)c(Cl)c4)c3c2)o1
NVP-BEZ235 (0.02 µM): Cn1c(=O)n(-c2ccc(C(C)(C)C#N)cc2)c2c3cc(-c4cnc5ccccc5c4)ccc3ncc21
nutlin-3 (0.5 µM): COc1ccc(C2=N[C@@H](c3ccc(Cl)cc3)[C@@H](c3ccc(Cl)cc3)N2C(=O)N2CCNC(=O)C2)c(OC(C)C)c1
vatalanib (10 µM): Clc1ccc(Nc2nnc(Cc3ccncc3)c3ccccc23)cc1
NVP-TAE684 (0.4 µM): COc1cc(N2CCC(N3CCN(C)CC3)CC2)ccc1Nc1ncc(Cl)c(Nc2ccccc2S(=O)(=O)C(C)C)n1
fludarabine (1 µM): Nc1nc(F)nc2c1ncn2[C@@H]1O[C@H](CO)[C@@H](O)[C@@H]1O
crizotinib (1 µM): C[C@@H](Oc1cc(-c2cnn(C3CCNCC3)c2)cnc1N)c1c(Cl)ccc(F)c1Cl
tanespimycin (0.01 µM): C=CCNC1=C2C[C@@H](C)C[C@H](OC)[C@H](O)[C@@H](C)/C=C(\C)[C@H](OC(N)=O)[C@@H](OC)/C=C\C=C(/C)C(=O)NC(=CC1=O)C2=O
dasatinib (0.02 µM): Cc1nc(Nc2ncc(C(=O)Nc3c(C)cccc3Cl)s2)cc(N2CCN(CCO)CC2)n1
MK-2206 (2 µM): NC1(c2ccc(-c3nc4ccn5c(=O)[nH]nc5c4cc3-c3ccccc3)cc2)CCC1

| Partner | 501mel | COLO 792 | RVH-421 | IST-MEL1 | LB2518-MEL | SK-MEL-28 | A375 | MeWo |
|---|---|---|---|---|---|---|---|---|
| MK-2206 | - | 154 | 55.9 | 107 | 31.9 | 48.8 | 54.1 | 89.5 |
| KU-0063794 | 64.1 | 135 | 386 | 60.0 | 60.9 | 57.9 | 162 | 152 |
| vatalanib | - | 134 | 141 | 151 | 119 | 71.1 | 124 | 186 |
| embelin | 80.4 | 134 | 154 | 58.3 | 80.0 | 119 | 87.0 | 104 |
| crizotinib | - | 73.4 | 979 | 44.0 | 62.4 | 93.3 | 102 | 86.0 |
| cediranib | - | 95.9 | 187 | 78.5 | 109 | 89.6 | - | 121 |
| fingolimod | - | 48.5 | 183 | 107 | 107 | 221 | 30.3 | 240 |
| NVP-TAE684 | 150 | 119 | 124 | 85.9 | 48.5 | 99.7 | 140 | 187 |
| GW9662 | 362 | 43.0 | 144 | 40.0 | 78.1 | 145 | 41.4 | 71.3 |
| dovitinib | - | 239 | 68.1 | 181 | 198 | 117 | 247 | 305 |
| GW0742 | 79.8 | 82.3 | 73.7 | 68.1 | 71.3 | 75.6 | 139 | 141 |
| SNS-314 | - | 498 | 53.8 | 95.9 | 53.0 | 126 | - | 178 |
| ruxolitinib | - | 195 | 80.9 | 146 | 46.0 | 44.6 | 96.7 | 93.3 |
| BI-D1870 | 46.8 | 13.6 | 232 | 88.5 | 103 | 51.9 | 38.1 | 105 |
| dasatinib | - | 74.4 | 628 | 168 | 3060 | 165 | 30.6 | 96.5 |
| GW2580 | 119 | 27.7 | 141 | 95.3 | 118 | 101 | 37.7 | 63.1 |
| AS-252424 | 38.0 | 57.9 | 28.7 | 143 | 92.4 | 69.8 | 86.6 | 97.0 |
| fludarabine | - | 382 | 78.8 | 70.1 | 143 | 748 | 515 | 67.4 |
| everolimus | - | 84.3 | 74.7 | 144 | 52.4 | 58.4 | 69.1 | 96.8 |
| lapatinib | - | 53.6 | 57.8 | 208 | 64.1 | 55.0 | 21.0 | 46.8 |
| sunitinib | - | 188 | 53.0 | 56.2 | 197 | 132 | 73.1 | 65.8 |
| NVP-BEZ235 | - | 198 | 152 | 119 | - | 68.9 | 152 | 21.7 |
| darinaparsin | - | 52.6 | 105 | 51.8 | 89.8 | 47.8 | 37.1 | 249 |
| PD173074 | 118 | 74.1 | 113 | 39.9 | 47.2 | 32.6 | 57.6 | 80.2 |
| nutlin-3 | - | 129 | 336 | 202 | 241 | 108 | 49.0 | 83.5 |
| vismodegib | - | 49.0 | 92.9 | 24.0 | 61.8 | 45.9 | 24.3 | 58.6 |
| tanespimycin | - | 156 | 60.0 | 113 | 142 | 51.0 | 40.2 | 118 |
| temozolomide | - | 92.1 | 19.3 | 133 | 82.0 | 560 | 43.6 | 81.0 |
| selumetinib | - | 215 | 33.9 | 140 | 351 | 75.3 | 130 | 65.0 |

For reference, 2 entries once more:

{"partner": "nutlin-3", "COLO 792": 129, "RVH-421": 336, "IST-MEL1": 202, "LB2518-MEL": 241, "SK-MEL-28": 108, "A375": 49.0, "MeWo": 83.5}
{"partner": "fludarabine", "COLO 792": 382, "RVH-421": 78.8, "IST-MEL1": 70.1, "LB2518-MEL": 143, "SK-MEL-28": 748, "A375": 515, "MeWo": 67.4}